Source: PubChem BioAssay AID652243 (Drosophila RNAi Screening Center, 2013)
Screen: 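Knock-downs that decrease or increase androgen receptor reporter signal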 (primary screen). Cells: Drosophila S2R+ cells. Reagents: long dsRNA against Drosophila genes. Duration: 72 h (48 h, then 24 h hormone). Challenge: synthetic androgen R1881 at 10 nM for 24 h. Measured: 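Per-well raw luminescence of the androgen-driven firefly reporter and of the Renilla control, two replicates each, without normalisation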. Reading the numbers: firefly reporter light: higher = more light from androgen-responsive reporter; Renilla control light: higher = more constitutive control signal (cell number, transfection). Call rule: 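Hit when the log firefly-to-Renilla ratio dropped or increased by a fixed fold versus the mean of GFP or LacZ controls across duplicate plates; lowering cut given as 1.5 and as 3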. Meaning of the calls: active = hit: reporter lowered or raised; inactive = no hit.
The screen tested about 24,000 reagents; this is an unselected part of those that have a named target and a result. Over the whole deposit, 246 (1%) were called active. 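Plates not normalised; calls are printed but the firefly/Renilla ratio behind them is not deposited; fold cut for lowering reported inconsistently.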 Raw values are not corrected between plates. Not given: the amount of reagent.

For Gr36a (GeneID 117488) [SID104202060], how do the results read?
firefly reporter light, replicate 1: 7.91e5; firefly reporter light, replicate 2: 7.38e5; Renilla control light, replicate 1: 1.23e6; Renilla control light, replicate 2: 1.47e6; Outcome: inactive

With Gr36a (GeneID 117488) [SID104206268], how do the results read?
firefly reporter light, replicate 1: 2.23e5; firefly reporter light, replicate 2: 1.85e5; Renilla control light, replicate 1: 6.30e5; Renilla control light, replicate 2: 8.38e5; Outcome: inactive

What did the screen give for CG13096 (GeneID 34183) [SID104181990]?
firefly reporter light, replicate 1: 1.16e5; firefly reporter light, replicate 2: 2.02e5; Renilla control light, replicate 1: 1.57e6; Renilla control light, replicate 2: 1.53e6; Outcome: inactive

What is on record for CG12091 (GeneID 38177) [SID104188043]?
firefly reporter light, replicate 1: 86052; firefly reporter light, replicate 2: 89895; Renilla control light, replicate 1: 7.38e5; Renilla control light, replicate 2: 6.41e5; Outcome: inactive

How did the screen score CG12091 (GeneID 38177) [SID104203449]?
firefly reporter light, replicate 1: 7.11e5; firefly reporter light, replicate 2: 8.47e5; Renilla control light, replicate 1: 9.85e5; Renilla control light, replicate 2: 1.06e6; Outcome: inactive

How did the screen score CG11912 (GeneID 33205) [SID104180124]?
firefly reporter light, replicate 1: 8.39e5; firefly reporter light, replicate 2: 8.21e5; Renilla control light, replicate 1: 2.58e6; Renilla control light, replicate 2: 1.63e6; Outcome: inactive

What did the screen give for CG10077 (GeneID 38756) [SID104189483]?
firefly reporter light, replicate 1: 8.91e5; firefly reporter light, replicate 2: 7.84e5; Renilla control light, replicate 1: 7.84e5; Renilla control light, replicate 2: 8.63e5; Outcome: inactive

With CG10077 (GeneID 38756) [SID104203379], how do the results read?
firefly reporter light, replicate 1: 8.39e5; firefly reporter light, replicate 2: 9.21e5; Renilla control light, replicate 1: 8.29e5; Renilla control light, replicate 2: 7.80e5; Outcome: inactive

Which result is listed for idc (GeneID 42393) [SID104195472]?
firefly reporter light, replicate 1: 64222; firefly reporter light, replicate 2: 42577; Renilla control light, replicate 1: 3.50e5; Renilla control light, replicate 2: 4.78e5; Outcome: inactive

How did the screen score CR34254 (GeneID 5740610) [SID104216409]?
firefly reporter light, replicate 1: 1.34e6; firefly reporter light, replicate 2: 7.35e5; Renilla control light, replicate 1: 2.48e6; Renilla control light, replicate 2: 1.64e6; Outcome: inactive

For Su(H) (GeneID 34881) [SID104183237], what was measured?
firefly reporter light, replicate 1: 1.27e5; firefly reporter light, replicate 2: 1.36e5; Renilla control light, replicate 1: 1.10e6; Renilla control light, replicate 2: 1.54e6; Outcome: inactive

For Su(H) (GeneID 34881) [SID104216690], what does the deposit list?
firefly reporter light, replicate 1: 4.24e5; firefly reporter light, replicate 2: 5.20e5; Renilla control light, replicate 1: 1.45e6; Renilla control light, replicate 2: 2.27e6; Outcome: inactive

With Dph4 (GeneID 40686) [SID104192110], what was measured?
firefly reporter light, replicate 1: 74490; firefly reporter light, replicate 2: 58128; Renilla control light, replicate 1: 1.14e6; Renilla control light, replicate 2: 8.71e5; Outcome: inactive

Which result is listed for CG34280 (GeneID 5740878) [SID104216392]?
firefly reporter light, replicate 1: 1.00e6; firefly reporter light, replicate 2: 9.81e5; Renilla control light, replicate 1: 2.25e6; Renilla control light, replicate 2: 2.05e6; Outcome: inactive

How did the screen score MFS3 (GeneID 33292) [SID104180456]?
firefly reporter light, replicate 1: 1.23e5; firefly reporter light, replicate 2: 1.18e5; Renilla control light, replicate 1: 9.09e5; Renilla control light, replicate 2: 1.27e6; Outcome: inactive

Which result is listed for MFS3 (GeneID 33292) [SID104207145]?
firefly reporter light, replicate 1: 4.49e5; firefly reporter light, replicate 2: 3.45e5; Renilla control light, replicate 1: 1.10e6; Renilla control light, replicate 2: 1.21e6; Outcome: inactive

For CG14443 (GeneID 31595) [SID104197728], what was measured?
firefly reporter light, replicate 1: 1.91e5; firefly reporter light, replicate 2: 1.99e5; Renilla control light, replicate 1: 2.43e6; Renilla control light, replicate 2: 2.37e6; Outcome: inactive

Which result is listed for CG17549 (GeneID 35212) [SID104182417]?
firefly reporter light, replicate 1: 8.13e5; firefly reporter light, replicate 2: 8.13e5; Renilla control light, replicate 1: 1.91e6; Renilla control light, replicate 2: 2.30e6; Outcome: inactive

Which result is listed for CDK2AP1 (GeneID 32050) [SID104199592]?
firefly reporter light, replicate 1: 69257; firefly reporter light, replicate 2: 1.06e5; Renilla control light, replicate 1: 6.23e5; Renilla control light, replicate 2: 6.69e5; Outcome: inactive

For CDK2AP1 (GeneID 32050) [SID104204181], what does the deposit list?
firefly reporter light, replicate 1: 6.90e5; firefly reporter light, replicate 2: 5.65e5; Renilla control light, replicate 1: 9.45e5; Renilla control light, replicate 2: 8.09e5; Outcome: inactive

What did the screen give for Iru (GeneID 41080) [SID104194249]?
firefly reporter light, replicate 1: 51691; firefly reporter light, replicate 2: 65603; Renilla control light, replicate 1: 2.55e5; Renilla control light, replicate 2: 3.72e5; Outcome: inactive

Part of the list above, reduced to “firefly reporter light, replicate 2”:
CG12091 (GeneID 38177) [SID104188043]	89895
CG12091 (GeneID 38177) [SID104203449]	8.47e5
CG11912 (GeneID 33205) [SID104180124]	8.21e5
